Measurements: patent US20230416329A1, “A PEPTIDE WITH DISULFIDE BONDS AND INHIBITORY ACTIVITY AGAINST SERINE PROTEASES, DERIVED HYBRID PEPTIDES THEREOF, AND USES THEREOF” (INSTITUTE OF MATERIA MEDICA , CHINESE ACADEMY OF MEDICAL …, priority 2020, published 2023)
No constants are given. Whether binding was seen depends on the method and setting. Some entries that bind do so weakly or less than the wild type.

The chains behind the UniProt entries cited, without tags or fusion partners. Residues count along the entry.
UniProt Q8NBP7, residues 31-692: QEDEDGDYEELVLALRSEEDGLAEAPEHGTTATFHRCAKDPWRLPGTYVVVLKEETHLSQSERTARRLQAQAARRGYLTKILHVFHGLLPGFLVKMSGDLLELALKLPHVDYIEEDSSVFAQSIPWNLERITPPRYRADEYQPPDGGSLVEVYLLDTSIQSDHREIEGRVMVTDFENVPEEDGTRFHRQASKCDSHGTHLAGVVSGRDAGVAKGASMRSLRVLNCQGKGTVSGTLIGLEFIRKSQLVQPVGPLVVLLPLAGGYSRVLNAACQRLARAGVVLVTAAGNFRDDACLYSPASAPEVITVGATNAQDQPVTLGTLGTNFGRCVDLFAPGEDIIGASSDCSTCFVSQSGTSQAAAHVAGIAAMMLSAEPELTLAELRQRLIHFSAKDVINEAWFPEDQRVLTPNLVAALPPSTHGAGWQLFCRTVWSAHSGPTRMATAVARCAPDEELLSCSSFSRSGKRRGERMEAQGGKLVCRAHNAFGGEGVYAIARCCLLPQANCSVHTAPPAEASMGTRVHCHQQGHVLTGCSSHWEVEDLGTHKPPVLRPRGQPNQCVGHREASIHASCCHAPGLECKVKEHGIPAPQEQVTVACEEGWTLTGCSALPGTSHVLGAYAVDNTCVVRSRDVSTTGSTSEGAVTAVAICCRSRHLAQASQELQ
UniProt P00760, residues 24-246: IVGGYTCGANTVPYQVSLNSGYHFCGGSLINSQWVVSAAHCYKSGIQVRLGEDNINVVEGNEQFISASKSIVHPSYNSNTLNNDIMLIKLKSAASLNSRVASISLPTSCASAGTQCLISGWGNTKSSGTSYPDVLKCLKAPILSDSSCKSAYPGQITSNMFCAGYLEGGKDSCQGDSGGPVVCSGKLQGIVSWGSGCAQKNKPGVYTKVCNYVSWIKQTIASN

Key:
[1] = biological target: proprotein convertase subtilisin/kexin type 9 (PCSK9) (UniProt Q8NBP7); test: inhibition experiment of PCSK9-LDLR
[2] = biological target: proprotein convertase subtilisin/kexin type 9 (PCSK9) (UniProt Q8NBP7); test: PCSK9-LDLR in vitro binding assay kit
[3] = biological target: proprotein convertase subtilisin/kexin type 9 (PCSK9) (UniProt Q8NBP7); test: PCSK9-LDLR in vitro binding assay kit, 50 µM peptide
[4] = biological target: bovine trypsin (bovine) (UniProt P00760); test: trypsin inhibition, BApNA substrate (IC50)

| binding [1] | binding [2] | binding [3] | binding [4] | Binder |
| --- | --- | --- | --- | --- |
| binds | binds |  |  | TVFTSWEEALDWVGICTASIPPICQ (Cys-Cys disulfide) [PCSK9_2EC] |
| binds |  | binds |  | TVFTSGCGRATKSIPPICFWEEYLDWV (Cys-Cys disulfide) [PCSK9_7] |
| binds | binds |  |  | ICTASIPPICQGTVFTSWEEALDWV (Cys-Cys disulfide) [PCSK9_3EC] |
| binds | binds |  |  | TVFTSGICTASIPPICQWEEYLDWV (Cys-Cys disulfide) [PCSK9_9EC] |
| binds | binds |  |  | WEEALDWVGICTASIPPICQGTVFTS (Cys-Cys disulfide) [PCSK9_5EC] |
| binds | binds |  |  | TVFTSGFCTYSIPPQCYGWEEYLDWV (Cys-Cys disulfide) [PCSK9_9CH] |
| binds |  | binds |  | WEEALDWVCGRATKSIPPICFGTVFTS (Cys-Cys disulfide) [PCSK9_5] |
| binds |  | binds |  | WEEYLDYVCGRATKSIPPICFGTVFTS (Cys-Cys disulfide) [PCSK9_6] |
|  |  |  | no binding (tested: 50 µM) | GRCPKILQRCF (Cys-Cys disulfide) [BT43] |
| binds | binds |  |  | WEEYLDYVGFCTYSIPPQCYGTVFTS (Cys-Cys disulfide) [PCSK9_6CH] |
| binds | binds |  |  | TVFTSWEEALDWVGFCTYSIPPQCYG (Cys-Cys disulfide) [PCSK9_2CH] |
| binds |  | binds |  | TVFTSGCGRATKSIPPICFSWEEYLDWV (Cys-Cys disulfide) [PCSK9_8] |
| binds | binds |  |  | WEEYLDYVGICTASIPPICQGTVFTS (Cys-Cys disulfide) [PCSK9_6EC] |
| binds |  | binds |  | TVFTSGRCTKSIPPICFWEEYLDWV (Cys-Cys disulfide) [PCSK9_9] |
| binds |  | binds |  | TVFTSWEEALDWVCGRATKSIPPICF (Cys-Cys disulfide) [PCSK9_2] |
| binds | binds |  |  | WEEALDWVGFCTYSIPPQCYGTVFTS (Cys-Cys disulfide) [PCSK9_5CH] |
| binds |  | binds |  | CGRATKSIPPICFGTVFTSWEEALDWV (Cys-Cys disulfide) [PCSK9_3] |
| binds | binds |  |  | FCTYSIPPQCYGGTVFTSWEEALDWV (Cys-Cys disulfide) [PCSK9_3CH] |
